Three substances from paper PMC7335050, “Characterization of an alternative BAK-binding site for BH3 peptides” (Nature Communications, 2020) can be followed below.

By UniProt entry, the sequences of proteins in these tests, tags left out.
UniProt P10417: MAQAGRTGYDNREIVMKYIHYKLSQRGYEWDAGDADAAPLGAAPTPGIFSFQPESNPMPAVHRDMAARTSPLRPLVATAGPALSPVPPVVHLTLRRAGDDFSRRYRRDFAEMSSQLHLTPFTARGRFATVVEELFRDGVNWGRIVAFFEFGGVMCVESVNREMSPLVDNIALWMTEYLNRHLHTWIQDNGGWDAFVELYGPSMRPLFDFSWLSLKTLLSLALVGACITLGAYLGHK
UniProt P97287: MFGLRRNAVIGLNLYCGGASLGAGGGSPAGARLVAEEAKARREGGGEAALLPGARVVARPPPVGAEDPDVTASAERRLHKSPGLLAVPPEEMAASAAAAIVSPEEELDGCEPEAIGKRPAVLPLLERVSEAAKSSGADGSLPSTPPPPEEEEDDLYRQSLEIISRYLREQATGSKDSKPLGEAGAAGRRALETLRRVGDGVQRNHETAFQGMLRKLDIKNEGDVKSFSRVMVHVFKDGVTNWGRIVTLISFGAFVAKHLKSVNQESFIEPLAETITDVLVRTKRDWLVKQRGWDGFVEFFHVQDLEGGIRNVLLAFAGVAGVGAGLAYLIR

One test deals with T1, S-tagged WT BAK (human) (UniProt Q16611).
T1 sequence: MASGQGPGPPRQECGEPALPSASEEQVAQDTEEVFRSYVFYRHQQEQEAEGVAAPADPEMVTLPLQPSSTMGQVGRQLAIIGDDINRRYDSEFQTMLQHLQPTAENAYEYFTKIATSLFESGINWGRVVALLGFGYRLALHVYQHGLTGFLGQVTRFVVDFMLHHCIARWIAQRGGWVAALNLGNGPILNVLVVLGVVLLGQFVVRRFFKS
Kind of test: pull-down; S-tagged BAK or BAK F161A transfected into Bak−/−Bax−/− MEFs with 10 μM Q-VD-OPh for 24 h; CHAPS lysates (400 μg) incubated 24 h at 4 °C with S-protein agarose, blotted for the indicated proteins.

Test [1] has as its target T2, S-tagged F161A BAK (human) (UniProt Q16611).
T2 sequence: T1 sequence with F161A
The description is as above.

Numbering of substitutions follows the chain as printed. These are yes or no findings as the source states them, for the method shown. In cells and extracts the contact can be indirect. Some results given as binding are weak or reduced against the parent protein; the word gives no strength. Sequences can lack the tags named with a protein.

As for “BCL2 (in MEFs) (from UniProt P10417 1-236)”, the binding entry (in the test with S-tagged WT BAK (human); in test [1]) was “binds” each time.
As to “BCLXL (in MEFs) (from UniProt Q64373-1 1-233)”, the binding entry (with S-tagged WT BAK (human); in test [1]) was “binds” each time.
Take “MCL1 (in MEFs) (from UniProt P97287 1-331)”: the binding entry (with S-tagged WT BAK (human); in test [1]) was “binds” throughout.
